# Some of the results follow.
# B1: Tp0751, 83732 (protein)
# chain: MSYYHHHHHHLESTSLYKKAGFQHGHVPPRRIPPHDTFGALPTAALPSNARDTAAHPSDTADNTSGSSTTTDPRSHGNAPPAPVGGAAQTHTQPPVQTAMRIALWNRATHGEQGALQHLLAGLWIQTEISPNSGDIHPLLFFDREHAEITFSRASVQEIFLVDSAHTHRKTVSFLTRNTAISSIRRRLEVTFESHEVIHVRAVEDVARLKIGSTSMWDGQYTRYHAGPASAPSP
# How the values were obtained:
# Assay in all cases: glycan array binding signal (z-score within array); higher = stronger binding
# Settings in all cases: glycan notation: IUPAC condensed, linker removed
# [1] = target: Fuc(a1-3)GlcNAc
# Procedure, shortened: (§1)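 The Consortium for Functional Glycomics database supplied 3228 glycan arrays, of which those lacking an available protein sequence were dropped. The binding signal, a within-array Z-score, was averaged across arrays of the same protein sequence and across linkers. Negative scores can be read as non-binding.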
# [2] = target: Fuc(a1-3)[Gal(b1-4)]Glc6S
# Procedure, shortened: as §1
# [3] = target: Fuc(a1-3)[Gal(b1-4)]GlcNAc
# Procedure, shortened: as §1
# [4] = target: Fuc(a1-3)[Gal(b1-4)]GlcNAc(b1-2)Man
# Procedure, shortened: as §1
# [5] = target: Fuc(a1-3)[Gal(b1-4)]GlcNAc(b1-2)Man(a1-3)[Fuc(a1-3)[Gal(b1-4)]GlcNAc(b1-2)Man(a1-6)]Man(b1-4)GlcNAc(b1-4)GlcNAc
# Procedure, shortened: as §1
# [6] = target: Fuc(a1-3)[Gal(b1-4)]GlcNAc(b1-2)Man(a1-3)[Fuc(a1-3)[Gal(b1-4)]GlcNAc(b1-2)Man(a1-6)]Man(b1-4)GlcNAc(b1-4)[Fuc(a1-6)]GlcNAc
# Procedure, shortened: as §1
# [7] = target: Fuc(a1-3)[Gal(b1-4)]GlcNAc(b1-3)Gal(b1-3)[Fuc(a1-4)]GlcNAc
# Procedure, shortened: as §1
# [8] = target: Fuc(a1-3)[Gal(b1-4)]GlcNAc(b1-3)GalNAc
# Procedure, shortened: as §1
# [9] = target: Fuc(a1-3)[Gal(b1-4)]GlcNAc(b1-4)Gal(b1-4)[Fuc(a1-3)]GlcNAc
# Procedure, shortened: as §1
# [10] = target: Fuc(a1-3)[Gal(b1-4)]GlcNAc(b1-4)Gal(b1-4)[Fuc(a1-3)]GlcNAc(b1-4)Gal(b1-4)[Fuc(a1-3)]GlcNAc
# Procedure, shortened: as §1
# [11] = target: Fuc(a1-3)[Gal(b1-4)]GlcNAc(b1-6)GalNAc
# Procedure, shortened: as §1
# [12] = target: Fuc(a1-3)[Gal(b1-4)]GlcNAc(b1-6)[Gal(b1-3)GlcNAc(b1-3)]Gal(b1-4)Glc
# Procedure, shortened: as §1
# [13] = target: Fuc(a1-3)[Gal(b1-4)]GlcNAc6S
# Procedure, shortened: as §1
# [14] = target: Fuc(a1-3)[Gal3S(b1-4)]Glc
# Procedure, shortened: as §1
# [15] = target: Fuc(a1-3)[Gal3S(b1-4)]GlcNAc
# Procedure, shortened: as §1
# [16] = target: Fuc(a1-3)[Gal3S(b1-4)]GlcNAc6S
# Procedure, shortened: as §1
# [17] = target: Fuc(a1-3)[GalNAc(b1-4)]GlcNAc
# Procedure, shortened: as §1
# [18] = target: Fuc(a1-3)[GalNAc(b1-4)]GlcNAc6S
# Procedure, shortened: as §1
# [19] = target: Fuc(a1-4)GlcNAc
# Procedure, shortened: as §1
# [20] = target: Fuc(b1-3)GlcNAc
# Procedure, shortened: as §1
# [21] = target: Gal(a1-2)Gal
# Procedure, shortened: as §1
# [22] = target: Gal(a1-3)Gal
# Procedure, shortened: as §1
# [23] = target: Gal(a1-3)Gal(b1-3)GlcNAc
# Procedure, shortened: as §1
# [24] = target: Gal(a1-3)Gal(b1-3)GlcNAc(b1-2)Man
# Procedure, shortened: as §1
# [25] = target: Gal(a1-3)Gal(b1-3)GlcNAc(b1-2)Man(a1-3)[Gal(a1-3)Gal(b1-3)GlcNAc(b1-2)Man(a1-6)]Man(b1-4)GlcNAc(b1-4)GlcNAc
# Procedure, shortened: as §1
# [26] = target: Gal(a1-3)Gal(b1-3)GlcNAc(b1-3)GalNAc
# Procedure, shortened: as §1
# [27] = target: Gal(a1-3)Gal(b1-3)GlcNAc(b1-6)GalNAc
# Procedure, shortened: as §1
# [28] = target: Gal(a1-3)Gal(b1-3)[Fuc(a1-4)]GlcNAc(b1-2)Man(a1-3)[Gal(a1-3)Gal(b1-3)[Fuc(a1-4)]GlcNAc(b1-2)Man(a1-6)]Man(b1-4)GlcNAc(b1-4)GlcNAc
# Procedure, shortened: as §1
# [29] = target: Gal(a1-3)Gal(b1-4)Glc
# Procedure, shortened: as §1
# [30] = target: Gal(a1-3)Gal(b1-4)GlcNAc
# Procedure, shortened: as §1
# [31] = target: Gal(a1-3)Gal(b1-4)GlcNAc(b1-2)Man
# Procedure, shortened: as §1
# [32] = target: Gal(a1-3)Gal(b1-4)GlcNAc(b1-2)Man(a1-3)[Gal(a1-3)Gal(b1-4)GlcNAc(b1-2)Man(a1-6)]Man(b1-4)GlcNAc(b1-4)GlcNAc
# Procedure, shortened: as §1
# [33] = target: Gal(a1-3)Gal(b1-4)GlcNAc(b1-3)GalNAc
# Procedure, shortened: as §1
# [34] = target: Gal(a1-3)Gal(b1-4)GlcNAc(b1-6)GalNAc
# Procedure, shortened: as §1
# [35] = target: Gal(a1-3)Gal(b1-4)[Fuc(a1-3)]GlcNAc
# Procedure, shortened: as §1
# [36] = target: Gal(a1-3)Gal(b1-4)[Fuc(a1-3)]GlcNAc(b1-2)Man(a1-3)[Gal(a1-3)Gal(b1-4)[Fuc(a1-3)]GlcNAc(b1-2)Man(a1-6)]Man(b1-4)GlcNAc(b1-4)GlcNAc
# Procedure, shortened: as §1
# [37] = target: Gal(a1-3)GalNAc
# Procedure, shortened: as §1
# [38] = target: Gal(a1-3)[Gal(a1-4)]Gal(b1-4)GlcNAc
# Procedure, shortened: as §1
# [39] = target: Gal(a1-4)Gal(b1-3)GlcNAc(b1-2)Man(a1-3)[Gal(a1-4)Gal(b1-3)GlcNAc(b1-2)Man(a1-6)]Man(b1-4)GlcNAc(b1-4)GlcNAc
# Procedure, shortened: as §1
# [40] = target: Gal(a1-4)Gal(b1-4)Glc
# Procedure, shortened: as §1
# [41] = target: Gal(a1-4)Gal(b1-4)GlcNAc
# Procedure, shortened: as §1
# [42] = target: Gal(a1-4)Gal(b1-4)GlcNAc(b1-2)Man(a1-3)[Gal(a1-4)Gal(b1-4)GlcNAc(b1-2)Man(a1-6)]Man(b1-4)GlcNAc(b1-4)GlcNAc
# Procedure, shortened: as §1
# [43] = target: Gal(a1-4)Gal(b1-4)GlcNAc(b1-3)Gal(b1-4)Glc
# Procedure, shortened: as §1
# [44] = target: Gal(a1-4)GlcNAc
# Procedure, shortened: as §1
# [45] = target: Gal(a1-6)Glc
# Procedure, shortened: as §1
binder,measurement,setting,value
B1,glycan array binding signal (z-score),[1],0.648
same,glycan array binding signal (z-score),[2],-0.281
same,glycan array binding signal (z-score),[3],-0.124
same,glycan array binding signal (z-score),[4],0.107
same,glycan array binding signal (z-score),[5],0.837
same,glycan array binding signal (z-score),[6],-0.382
same,glycan array binding signal (z-score),[7],-0.322
same,glycan array binding signal (z-score),[8],-0.708
same,glycan array binding signal (z-score),[9],0.073
same,glycan array binding signal (z-score),[10],-0.247
same,glycan array binding signal (z-score),[11],-0.015
same,glycan array binding signal (z-score),[12],0.413
same,glycan array binding signal (z-score),[13],0.149
same,glycan array binding signal (z-score),[14],-0.341
same,glycan array binding signal (z-score),[15],-0.443
same,glycan array binding signal (z-score),[16],0.628
same,glycan array binding signal (z-score),[17],1.32
same,glycan array binding signal (z-score),[18],-0.326
same,glycan array binding signal (z-score),[19],-0.55
same,glycan array binding signal (z-score),[20],-0.739
same,glycan array binding signal (z-score),[21],1.06
same,glycan array binding signal (z-score),[22],-0.242
same,glycan array binding signal (z-score),[23],0.661
same,glycan array binding signal (z-score),[24],-0.003
same,glycan array binding signal (z-score),[25],0.157
same,glycan array binding signal (z-score),[26],0.061
same,glycan array binding signal (z-score),[27],-0.227
same,glycan array binding signal (z-score),[28],0.411
same,glycan array binding signal (z-score),[29],-0.074
same,glycan array binding signal (z-score),[30],-0.348
same,glycan array binding signal (z-score),[31],-0.402
same,glycan array binding signal (z-score),[32],0.262
same,glycan array binding signal (z-score),[33],-0.025
same,glycan array binding signal (z-score),[34],0.534
same,glycan array binding signal (z-score),[35],-0.637
same,glycan array binding signal (z-score),[36],0.606
same,glycan array binding signal (z-score),[37],-0.017
same,glycan array binding signal (z-score),[38],0.497
same,glycan array binding signal (z-score),[39],-0.188
same,glycan array binding signal (z-score),[40],-0.364
same,glycan array binding signal (z-score),[41],0.255
same,glycan array binding signal (z-score),[42],0.305
same,glycan array binding signal (z-score),[43],-0.075
same,glycan array binding signal (z-score),[44],0.005
same,glycan array binding signal (z-score),[45],-0.113
